Results published in article PMC9270398.
Results are given in words; binding and its absence hold for the method and conditions named. Binding seen in cells or lysates may run through a third protein. A yes stands for co-enrichment or nearness to the bait. Other partners may have been found. Where a sequence is shown, tags or fusion partners need not be part of it.

The chains behind the UniProt entries cited, without tags or fusion partners.
UniProt Q8NDV7: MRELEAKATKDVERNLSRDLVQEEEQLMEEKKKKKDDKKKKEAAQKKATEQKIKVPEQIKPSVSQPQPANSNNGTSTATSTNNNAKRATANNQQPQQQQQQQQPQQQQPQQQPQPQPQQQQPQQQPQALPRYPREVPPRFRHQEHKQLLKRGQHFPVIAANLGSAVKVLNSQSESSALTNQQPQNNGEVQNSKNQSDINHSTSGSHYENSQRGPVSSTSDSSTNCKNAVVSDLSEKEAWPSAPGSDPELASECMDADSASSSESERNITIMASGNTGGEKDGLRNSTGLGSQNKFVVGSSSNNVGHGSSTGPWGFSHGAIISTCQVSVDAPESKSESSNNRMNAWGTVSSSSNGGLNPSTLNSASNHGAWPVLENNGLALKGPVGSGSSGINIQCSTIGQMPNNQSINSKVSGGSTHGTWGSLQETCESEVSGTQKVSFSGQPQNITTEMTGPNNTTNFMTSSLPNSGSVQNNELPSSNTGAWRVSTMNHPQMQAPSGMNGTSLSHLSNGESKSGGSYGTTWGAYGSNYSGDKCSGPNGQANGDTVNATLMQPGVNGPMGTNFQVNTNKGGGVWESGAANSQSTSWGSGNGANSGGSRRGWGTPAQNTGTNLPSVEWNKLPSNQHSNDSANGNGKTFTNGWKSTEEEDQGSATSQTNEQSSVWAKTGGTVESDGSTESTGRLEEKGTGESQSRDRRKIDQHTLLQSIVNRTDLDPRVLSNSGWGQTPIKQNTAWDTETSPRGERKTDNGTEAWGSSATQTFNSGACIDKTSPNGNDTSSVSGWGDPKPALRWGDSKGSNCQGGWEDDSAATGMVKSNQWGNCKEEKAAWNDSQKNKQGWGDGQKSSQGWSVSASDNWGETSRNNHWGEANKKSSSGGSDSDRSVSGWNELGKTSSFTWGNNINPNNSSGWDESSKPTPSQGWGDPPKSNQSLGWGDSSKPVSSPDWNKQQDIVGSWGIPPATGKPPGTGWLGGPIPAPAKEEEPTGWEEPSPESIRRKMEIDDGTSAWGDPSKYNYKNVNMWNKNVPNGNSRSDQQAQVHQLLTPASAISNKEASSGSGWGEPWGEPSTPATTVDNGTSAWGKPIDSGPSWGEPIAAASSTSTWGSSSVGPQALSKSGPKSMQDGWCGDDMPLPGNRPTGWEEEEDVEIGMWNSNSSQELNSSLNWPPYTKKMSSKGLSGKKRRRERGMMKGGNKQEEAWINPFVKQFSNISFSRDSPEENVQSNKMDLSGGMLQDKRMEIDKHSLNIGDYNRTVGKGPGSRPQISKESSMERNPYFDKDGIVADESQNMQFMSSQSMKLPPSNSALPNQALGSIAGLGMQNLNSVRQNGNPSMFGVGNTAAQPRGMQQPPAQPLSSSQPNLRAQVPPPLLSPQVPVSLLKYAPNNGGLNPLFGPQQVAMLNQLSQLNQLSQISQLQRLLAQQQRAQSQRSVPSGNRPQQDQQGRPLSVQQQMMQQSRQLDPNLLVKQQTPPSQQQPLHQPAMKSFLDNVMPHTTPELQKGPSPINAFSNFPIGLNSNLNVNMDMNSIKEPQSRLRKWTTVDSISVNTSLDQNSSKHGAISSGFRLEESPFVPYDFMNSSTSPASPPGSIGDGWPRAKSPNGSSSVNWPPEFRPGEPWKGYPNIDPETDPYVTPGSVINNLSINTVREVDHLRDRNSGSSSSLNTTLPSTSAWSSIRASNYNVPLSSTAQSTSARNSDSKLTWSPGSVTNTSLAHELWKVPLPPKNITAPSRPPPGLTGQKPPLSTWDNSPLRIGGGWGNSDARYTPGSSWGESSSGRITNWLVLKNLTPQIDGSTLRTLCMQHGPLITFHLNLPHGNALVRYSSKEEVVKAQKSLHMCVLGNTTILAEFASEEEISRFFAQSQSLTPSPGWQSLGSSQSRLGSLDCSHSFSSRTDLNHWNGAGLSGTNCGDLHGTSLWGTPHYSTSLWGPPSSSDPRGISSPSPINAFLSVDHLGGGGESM
UniProt O14980: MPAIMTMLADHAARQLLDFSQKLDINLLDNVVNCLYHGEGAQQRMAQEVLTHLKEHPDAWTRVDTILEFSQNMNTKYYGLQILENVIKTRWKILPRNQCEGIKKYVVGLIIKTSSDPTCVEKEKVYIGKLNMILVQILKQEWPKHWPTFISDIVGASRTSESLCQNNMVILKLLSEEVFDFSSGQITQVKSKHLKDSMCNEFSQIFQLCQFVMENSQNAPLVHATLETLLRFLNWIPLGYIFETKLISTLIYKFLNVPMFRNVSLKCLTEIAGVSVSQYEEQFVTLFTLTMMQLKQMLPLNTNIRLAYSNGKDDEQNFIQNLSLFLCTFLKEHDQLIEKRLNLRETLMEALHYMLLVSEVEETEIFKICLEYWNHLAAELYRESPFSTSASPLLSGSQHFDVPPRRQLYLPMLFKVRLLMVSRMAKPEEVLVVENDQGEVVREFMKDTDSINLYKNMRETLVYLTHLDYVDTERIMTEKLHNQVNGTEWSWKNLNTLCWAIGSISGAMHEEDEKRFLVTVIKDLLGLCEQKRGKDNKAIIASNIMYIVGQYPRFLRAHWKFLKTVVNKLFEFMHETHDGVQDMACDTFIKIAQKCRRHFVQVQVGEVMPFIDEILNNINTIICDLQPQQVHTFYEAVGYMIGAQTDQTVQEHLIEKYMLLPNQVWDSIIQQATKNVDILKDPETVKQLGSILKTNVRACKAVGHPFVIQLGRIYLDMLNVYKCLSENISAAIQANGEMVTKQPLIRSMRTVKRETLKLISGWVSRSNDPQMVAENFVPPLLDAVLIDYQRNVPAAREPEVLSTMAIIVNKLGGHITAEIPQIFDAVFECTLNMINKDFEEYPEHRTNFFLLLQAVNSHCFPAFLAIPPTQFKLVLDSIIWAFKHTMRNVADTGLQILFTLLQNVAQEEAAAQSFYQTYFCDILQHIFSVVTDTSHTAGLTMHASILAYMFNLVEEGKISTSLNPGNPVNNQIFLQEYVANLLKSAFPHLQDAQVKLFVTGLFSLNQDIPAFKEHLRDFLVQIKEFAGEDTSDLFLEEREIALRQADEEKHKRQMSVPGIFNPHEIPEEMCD

T1: GFP-TRIM24 fusion protein (tripartite motif-containing 24) (not stated (human or mouse cDNA cloned)) (UniProt O15164)
T1 sequence: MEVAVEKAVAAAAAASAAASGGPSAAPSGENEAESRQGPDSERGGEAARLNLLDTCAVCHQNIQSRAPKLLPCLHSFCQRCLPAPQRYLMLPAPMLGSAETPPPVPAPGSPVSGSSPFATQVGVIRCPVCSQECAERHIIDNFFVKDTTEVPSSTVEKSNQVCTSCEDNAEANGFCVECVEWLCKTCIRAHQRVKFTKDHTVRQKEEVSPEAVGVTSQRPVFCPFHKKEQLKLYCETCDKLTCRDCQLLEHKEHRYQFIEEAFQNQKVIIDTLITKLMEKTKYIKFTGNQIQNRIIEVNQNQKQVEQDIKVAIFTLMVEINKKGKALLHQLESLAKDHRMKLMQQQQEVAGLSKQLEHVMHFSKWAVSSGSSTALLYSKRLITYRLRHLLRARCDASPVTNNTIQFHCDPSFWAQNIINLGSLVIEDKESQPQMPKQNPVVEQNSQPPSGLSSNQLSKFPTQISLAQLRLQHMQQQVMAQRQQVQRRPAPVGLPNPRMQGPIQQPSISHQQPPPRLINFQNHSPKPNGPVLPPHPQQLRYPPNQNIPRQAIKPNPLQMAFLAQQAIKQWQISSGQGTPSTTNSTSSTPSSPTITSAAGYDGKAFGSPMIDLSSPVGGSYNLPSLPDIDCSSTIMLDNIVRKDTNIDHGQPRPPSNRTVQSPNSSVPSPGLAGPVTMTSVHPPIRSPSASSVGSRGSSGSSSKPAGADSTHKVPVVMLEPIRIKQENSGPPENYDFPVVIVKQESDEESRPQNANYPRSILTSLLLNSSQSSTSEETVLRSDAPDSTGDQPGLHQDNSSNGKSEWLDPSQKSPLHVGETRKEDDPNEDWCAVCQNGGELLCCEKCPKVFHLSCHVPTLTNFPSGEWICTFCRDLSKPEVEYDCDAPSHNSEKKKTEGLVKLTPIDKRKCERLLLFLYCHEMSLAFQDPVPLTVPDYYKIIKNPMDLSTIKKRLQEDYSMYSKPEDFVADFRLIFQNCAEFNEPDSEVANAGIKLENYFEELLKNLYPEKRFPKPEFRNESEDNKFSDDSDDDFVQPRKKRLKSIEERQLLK

B1: LSM1, endogenous in HEK293 cells (protein, UniProt O15116 1-133)
chain: MNYMPGTASLIEDIDKKHLVLLRDGRTLIGFLRSIDQFANLVLHQTVERIHVGKKYGDIPRGIFVVRGENVVLLGEIDLEKESDTPLQQVSIEEILEEQRVEQQTKLEAEKLKVQALKDRGLSIPRADTLDEY
B2: EDC4 (enhancer of decapping protein 4), endogenous in HEK293 cells (protein, UniProt Q6P2E9-1 1-1401)
chain: MASCASIDIEDATQHLRDILKLDRPAGGPSAESPRPSSAYNGDLNGLLVPDPLCSGDSTSANKTGLRTMPPINLQEKQVICLSGDDSSTCIGILAKEVEIVASSDSSISSKARGSNKVKIQPVAKYDWEQKYYYGNLIAVSNSFLAYAIRAANNGSAMVRVISVSTSERTLLKGFTGSVADLAFAHLNSPQLACLDEAGNLFVWRLALVNGKIQEEILVHIRQPEGTPLNHFRRIIWCPFIPEESEDCCEESSPTVALLHEDRAEVWDLDMLRSSHSTWPVDVSQIKQGFIVVKGHSTCLSEGALSPDGTVLATASHDGYVKFWQIYIEGQDEPRCLHEWKPHDGRPLSCLLFCDNHKKQDPDVPFWRFLITGADQNRELKMWCTVSWTCLQTIRFSPDIFSSVSVPPSLKVCLDLSAEYLILSDVQRKVLYVMELLQNQEEGHACFSSISEFLLTHPVLSFGIQVVSRCRLRHTEVLPAEEENDSLGADGTHGAGAMESAAGVLIKLFCVHTKALQDVQIRFQPQLNPDVVAPLPTHTAHEDFTFGESRPELGSEGLGSAAHGSQPDLRRIVELPAPADFLSLSSETKPKLMTPDAFMTPSASLQQITASPSSSSSGSSSSSSSSSSSLTAVSAMSSTSAVDPSLTRPPEELTLSPKLQLDGSLTMSSSGSLQASPRGLLPGLLPAPADKLTPKGPGQVPTATSALSLELQEVEPLGLPQASPSRTRSPDVISSASTALSQDIPEIASEALSRGFGSSAPEGLEPDSMASAASALHLLSPRPRPGPELGPQLGLDGGPGDGDRHNTPSLLEAALTQEASTPDSQVWPTAPDITRETCSTLAESPRNGLQEKHKSLAFHRPPYHLLQQRDSQDASAEQSDHDDEVASLASASGGFGTKVPAPRLPAKDWKTKGSPRTSPKLKRKSKKDDGDAAMGSRLTEHQVAEPPEDWPALIWQQQRELAELRHSQEELLQRLCTQLEGLQSTVTGHVERALETRHEQEQRRLERALAEGQQRGGQLQEQLTQQLSQALSSAVAGRLERSIRDEIKKTVPPCVSRSLEPMAGQLSNSVATKLTAVEGSMKENISKLLKSKNLTDAIARAAADTLQGPMQAAYREAFQSVVLPAFEKSCQAMFQQINDSFRLGTQEYLQQLESHMKSRKAREQEAREPVLAQLRGLVSTLQSATEQMAATVAGSVRAEVQHQLHVAVGSLQESILAQVQRIVKGEVSVALKEQQAAVTSSIMQAMRSAAGTPVPSAHLDCQAQQAHILQLLQQGHLNQAFQQALTAADLNLVLYVCETVDPAQVFGQPPCPLSQPVLLSLIQQLASDLGTRTDLKLSYLEEAVMHLDHSDPITRDHMGSVMAQVRQKLFQFLQAEPHNSLGKAARRLSLMLHGLVTPSLP

What follows are molecules tested against T1, GFP-TRIM24 fusion protein (tripartite motif-containing 24) (not stated (human or mouse cDNA cloned)) (assay: affinity purification with mass spectrometry; GFP-TRIM24 (free GFP as control) expressed in HEK293 cells, immunoprecipitated from lysates with GFP-Trap-agarose, SDS-PAGE, LC-MS/MS).
For “GW182 protein, endogenous in HEK293 cells (from UniProt Q8NDV7 1-1962)”, the binding was “binds”.
“XPO1 (exportin-1), endogenous in HEK293 cells (from UniProt O14980 1-1071)” was tested, and the binding was “binds”.
B1 was tested, and the binding was “binds”.
With B2 the binding was “binds”.
